Experimental data reported in PMC6082570.
No constants are given. Whether binding was seen depends on the method and setting. A result given as binding can be weak or reduced; the word gives no strength.

By UniProt entry, the sequences of proteins in these tests, tags left out.
UniProt P68559: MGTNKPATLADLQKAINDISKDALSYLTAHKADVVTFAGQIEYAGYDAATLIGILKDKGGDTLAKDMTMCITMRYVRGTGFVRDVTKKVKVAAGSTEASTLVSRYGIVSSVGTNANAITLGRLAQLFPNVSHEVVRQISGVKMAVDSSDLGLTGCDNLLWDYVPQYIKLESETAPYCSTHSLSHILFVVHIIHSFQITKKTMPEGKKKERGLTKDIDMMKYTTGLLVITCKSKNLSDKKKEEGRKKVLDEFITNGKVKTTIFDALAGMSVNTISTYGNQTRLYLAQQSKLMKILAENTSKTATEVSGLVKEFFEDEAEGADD

Molecular target: nucleocapsid protein (NP) of rice stripe virus, bait in pDHB1 (rice stripe virus) (UniProt P68559)
Assay: two-hybrid; split-ubiquitin yeast two-hybrid (DUALhunter), yeast strain NMY51; bait pDHB1-viral protein, prey pPR3-LsST6; growth on QDO (SD-trp-leu-his-ade) with 20 mM 3-AT, 30°C; β-galactosidase activity assay of clones grown on DDO

With “sugar transporter 6 of Laodelphax striatellus (LsST6), prey in pPR3-N (from UniProt A0A345BJV6)” the binding was “binds”.
